Patent publication US20030166623A1
These are yes or no findings as the source states them, for the method shown. Binding seen in cells or lysates may run through a third protein. Some entries that bind do so weakly or less than the wild type.

Amino acid sequences for entries named in this document (tags omitted). Residues count along the entry.
GST-ARDBD+LBD (androgen receptor 505-919) (P10275, residues 505-919): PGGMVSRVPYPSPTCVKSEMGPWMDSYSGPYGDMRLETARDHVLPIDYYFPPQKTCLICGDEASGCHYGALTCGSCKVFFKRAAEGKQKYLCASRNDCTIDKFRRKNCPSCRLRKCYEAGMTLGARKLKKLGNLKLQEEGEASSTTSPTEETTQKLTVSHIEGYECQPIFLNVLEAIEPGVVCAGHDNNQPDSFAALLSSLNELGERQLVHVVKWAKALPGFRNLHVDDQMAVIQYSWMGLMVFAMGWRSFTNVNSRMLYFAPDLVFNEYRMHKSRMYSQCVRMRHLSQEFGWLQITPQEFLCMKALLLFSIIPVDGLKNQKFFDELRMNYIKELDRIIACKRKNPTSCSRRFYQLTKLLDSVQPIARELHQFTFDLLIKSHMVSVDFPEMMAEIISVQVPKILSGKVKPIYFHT
GST-ARDBD (androgen receptor 505-635) (P10275, residues 505-635): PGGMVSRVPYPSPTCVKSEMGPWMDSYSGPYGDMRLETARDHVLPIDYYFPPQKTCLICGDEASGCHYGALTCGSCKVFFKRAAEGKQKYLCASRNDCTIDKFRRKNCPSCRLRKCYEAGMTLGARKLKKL
GST-ARZnf (androgen receptor zinc fingers, 553-635) (P10275, residues 553-635): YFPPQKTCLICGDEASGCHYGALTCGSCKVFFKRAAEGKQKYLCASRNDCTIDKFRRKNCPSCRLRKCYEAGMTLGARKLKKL
GST-ARtruncLBD (androgen receptor truncated LBD, 634-804) (P10275, residues 634-804): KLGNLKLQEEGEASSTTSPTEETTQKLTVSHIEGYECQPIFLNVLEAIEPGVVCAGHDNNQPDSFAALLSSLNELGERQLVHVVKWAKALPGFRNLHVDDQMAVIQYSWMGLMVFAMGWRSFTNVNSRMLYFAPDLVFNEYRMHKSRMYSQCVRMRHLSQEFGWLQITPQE
GST-AR3′H (androgen receptor 3′ hinge, 634-668) (P10275, residues 634-668): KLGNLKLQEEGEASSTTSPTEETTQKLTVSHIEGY
UniProt P03372, residues 282-595: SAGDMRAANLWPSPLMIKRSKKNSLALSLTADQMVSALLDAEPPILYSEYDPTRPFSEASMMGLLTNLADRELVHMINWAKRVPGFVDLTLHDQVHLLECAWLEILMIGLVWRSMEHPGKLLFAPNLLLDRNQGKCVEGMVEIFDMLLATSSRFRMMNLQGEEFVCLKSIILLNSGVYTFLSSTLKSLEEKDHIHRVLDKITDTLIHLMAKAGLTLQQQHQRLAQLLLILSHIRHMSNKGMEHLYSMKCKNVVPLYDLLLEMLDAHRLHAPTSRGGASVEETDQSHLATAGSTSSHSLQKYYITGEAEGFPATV

Columns and labels:
[1] = biological target: GST-ARDBD (androgen receptor 505-635) (UniProt P10275); assay: GST pulldown of 35S-labeled PAKSI, autoradiogram
[2] = biological target: GST-ARtruncLBD (androgen receptor truncated LBD, 634-804) (UniProt P10275); assay: GST pulldown of 35S-labeled PAKSI, autoradiogram
[3] = biological target: GST-ERHBD (estrogen receptor hormone binding domain fusion protein) (UniProt P03372); assay: GST pulldown of 35S-labeled PAKSI, autoradiogram
[4] = biological target: GST-AR3′H (androgen receptor 3′ hinge, 634-668) (UniProt P10275); assay: GST pulldown of 35S-labeled PAKSI, with or without DHT
[5] = biological target: GST-ARDBD (androgen receptor 505-635) (UniProt P10275); assay: as above
[6] = biological target: GST-ARDBD+LBD (androgen receptor 505-919) (UniProt P10275); assay: as above
[7] = biological target: GST-ARZnf (androgen receptor zinc fingers, 553-635) (UniProt P10275); assay: as above
[8] = biological target: GST-ARtruncLBD (androgen receptor truncated LBD, 634-804) (UniProt P10275); assay: as above
[9] = biological target: GST-ERHBD (estrogen receptor hormone binding domain fusion protein) (UniProt P03372); assay: GST pulldown of 35S-labeled PAKSI, with or without estradiol or tamoxifen

Measured: binding

B1: 35S-labeled PAKSI (enzyme)
chain: MFRKKKKKRPEISAPQNFQHRVHTSFDPKEGKFVGLPPQWQNILDTLRRPKPVVDPSRITRVQLQPMKTVVRGSAMPVDGYISGLLNDIQKLSVISSNTLRGRSPTSRRRAQSLGLLGDEHWATDPDMYLQSPQSERTDPHGLYLSCNGGTPAGHKQMPWPEPQSPRVLPNGLAAKAQSLGPAEFQGASQRCLQLGACLQSSPPGASPPTGTNRHGMKAAKHGSEEARPQSCLVGSATGRPGGEGSPSPKTRESSLKRRLFRSMFLSTAATAPPSSSKPGPPPQSKPNSSFRPPQKDNPPSLVAKAQSLPSDQPVGTFSPLTTSDTSSPQKSLRTAPATGQLPGRSSPAGSPRTWHAQISTSNLYLPQDPTVAKGALAGEDTGVVTHEQFKAALRMVVDQGDPRLLLDSYVKIGEGSTGIVCLAREKHSGRQVAVKMMDLRKQQRRELLFNEVVIMRDYQHFNVVEMYKNYLVGEELWVLMEFLQGGALTDIVSQVRLNEEQIATVCEAVLQALAYLHAQGVIHRDIKSDSILLTLDGRVKLSDFGFCAQISKDVPKRKSLVGTPYWMAPEVISRSLYATEVDIWSLGIMVIEMVDGEPPYFSDSPVQAMKRLRDSPPPKLKNSHKVSPVLRDFLERMLVRDPQERATAQELLDHPFLLQTGLPECLVPLIQLYRKQTSTC
modifications: 35S-labeled
binds: all assays above
